From paper PMC5034239
Results are given in words; binding and its absence hold for the method and conditions named. In cells and extracts the contact can be indirect. Some entries that bind do so weakly or less than the wild type.

Chains of the proteins cited; added tags and fusions are not shown. Lines headed by an entry give the natural chain unless they say otherwise; changes in a name come on top. Residues count along the entry.
UniProt Q13136: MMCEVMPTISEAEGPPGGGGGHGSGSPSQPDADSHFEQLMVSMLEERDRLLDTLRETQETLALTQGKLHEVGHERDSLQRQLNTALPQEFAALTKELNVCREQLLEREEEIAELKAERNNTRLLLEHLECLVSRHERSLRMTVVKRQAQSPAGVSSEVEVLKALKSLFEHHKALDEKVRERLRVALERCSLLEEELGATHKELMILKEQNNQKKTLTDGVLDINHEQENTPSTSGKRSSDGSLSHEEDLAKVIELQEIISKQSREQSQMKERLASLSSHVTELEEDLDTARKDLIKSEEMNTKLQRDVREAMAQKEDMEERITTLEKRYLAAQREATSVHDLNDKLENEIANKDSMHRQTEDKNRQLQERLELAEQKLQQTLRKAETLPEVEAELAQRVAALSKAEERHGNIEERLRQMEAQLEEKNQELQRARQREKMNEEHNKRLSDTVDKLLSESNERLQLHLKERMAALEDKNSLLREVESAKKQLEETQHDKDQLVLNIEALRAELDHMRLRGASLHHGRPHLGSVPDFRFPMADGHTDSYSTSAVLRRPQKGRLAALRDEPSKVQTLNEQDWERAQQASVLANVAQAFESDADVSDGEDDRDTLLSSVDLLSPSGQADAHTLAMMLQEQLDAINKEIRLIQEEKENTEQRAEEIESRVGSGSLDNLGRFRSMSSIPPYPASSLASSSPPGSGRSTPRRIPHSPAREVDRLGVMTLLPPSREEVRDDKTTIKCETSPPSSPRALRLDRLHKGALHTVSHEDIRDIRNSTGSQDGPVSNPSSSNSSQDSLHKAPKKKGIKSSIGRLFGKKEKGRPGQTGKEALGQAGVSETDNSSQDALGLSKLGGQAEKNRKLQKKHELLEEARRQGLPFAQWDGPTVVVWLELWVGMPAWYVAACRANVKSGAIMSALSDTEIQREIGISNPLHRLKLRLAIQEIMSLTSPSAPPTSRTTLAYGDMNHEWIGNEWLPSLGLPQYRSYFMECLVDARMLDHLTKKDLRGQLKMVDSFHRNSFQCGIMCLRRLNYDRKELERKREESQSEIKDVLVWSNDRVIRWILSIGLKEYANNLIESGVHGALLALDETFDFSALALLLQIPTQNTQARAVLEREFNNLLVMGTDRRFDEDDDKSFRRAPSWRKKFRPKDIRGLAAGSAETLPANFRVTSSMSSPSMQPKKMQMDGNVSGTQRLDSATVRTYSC
GFP-Liprin-N: residues 1-344 of Q13136

What follows are substances tested against GFP-Liprin-N (human) (UniProt Q13136) (assay: co-IP; COS7 cells cotransfected with GFP-tagged and/or FLAG-tagged constructs; 300 μg of protein lysate per immunoprecipitation; antibody (anti-GFP in Fig. 1b,c) pre-adsorbed to protein A Sepharose, 3 h at 4 °C; blots with anti-FLAG and anti-GFP).

Substance | binding
FLAG-Liprin-ΔN (from UniProt Q13136 335-1202) (domain or fragment) | no binding
FLAG-Liprin-1-670 (from UniProt Q13136 1-670) (domain or fragment) | binds
Liprin-1-517 (from UniProt Q13136 1-517) (domain or fragment) | binds
full length FLAG-Liprin-α1 (from UniProt Q13136 1-1202) | binds
